# Library screening results

Protein sequences, listed by entry. Tags and fused reporters are not part of them.
UniProt E9BF75, entry or part of it: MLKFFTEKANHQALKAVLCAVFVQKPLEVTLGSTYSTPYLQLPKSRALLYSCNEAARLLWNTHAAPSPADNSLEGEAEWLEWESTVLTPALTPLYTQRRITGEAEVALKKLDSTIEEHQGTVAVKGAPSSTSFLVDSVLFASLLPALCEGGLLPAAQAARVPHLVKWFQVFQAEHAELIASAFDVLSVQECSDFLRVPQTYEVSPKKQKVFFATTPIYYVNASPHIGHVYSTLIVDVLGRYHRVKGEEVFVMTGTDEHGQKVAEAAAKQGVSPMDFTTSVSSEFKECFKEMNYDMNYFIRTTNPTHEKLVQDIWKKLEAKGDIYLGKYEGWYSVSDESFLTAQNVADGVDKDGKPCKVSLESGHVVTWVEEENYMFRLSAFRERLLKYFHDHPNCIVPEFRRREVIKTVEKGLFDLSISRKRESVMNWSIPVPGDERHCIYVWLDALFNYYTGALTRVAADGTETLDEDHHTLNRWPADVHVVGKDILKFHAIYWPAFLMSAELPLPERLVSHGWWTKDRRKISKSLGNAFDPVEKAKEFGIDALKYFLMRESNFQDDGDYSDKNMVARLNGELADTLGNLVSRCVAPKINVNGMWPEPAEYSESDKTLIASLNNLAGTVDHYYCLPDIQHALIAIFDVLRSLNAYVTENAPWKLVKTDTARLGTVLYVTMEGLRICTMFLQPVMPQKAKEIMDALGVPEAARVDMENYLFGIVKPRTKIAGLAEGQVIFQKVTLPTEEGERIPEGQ

All values are in %. How 0% and 100% were set is not recorded. Most values in the screen are low, and negative values occur. Compounds were drawn at random from those tested, without regard to their results.

LdMetRS: 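Primary screen of methionyl-tRNA synthetase; the read-out is not stated. Target: Methionyl-tRNA synthetase (putative), Leishmania donovani (UniProt E9BF75). The test concentration is not given. The values are filed as inhibition. About 68,000 compounds were tested under these conditions; 0.035% (about 24) showed 50% or more at least once.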
Mtb heat-shock: 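Assay on Mycobacterium tuberculosis, filed only as a heat shock assay from Cornell; the read-out is not stated. The concentration is filed as 10 mM, unlikely as a test dose, so the dose is not known. Direction is inferred from retests: higher values go with stronger inhibition. Size under these conditions: about 69,000 compounds, about 930 of them at 50% or above in at least one test.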

With N#Cc1ncn(CCC(=O)Nc2c(Cl)cccc2Cl)n1 the screen gave LdMetRS: 9.5%; Mtb heat-shock: -2.693%.
With Cc1cnc(CN2CCN(c3ccc4nncn4n3)C(C)C2)cn1 (configuration not stated) the screen gave LdMetRS: 13.39%; Mtb heat-shock: -3.544%.
With CCO[C@H]1CO[C@@]2(CCCN(S(=O)(=O)c3cccnc3)C2)C1 the screen gave LdMetRS: 4%.
With CC(C)OCCCNC(=O)C1CCC(=O)N(C2CCCC2)C1 (configuration not stated) the screen gave Mtb heat-shock: -13.06%.
With [H][C@]12CC[C@@]3(N=C(CC)N(CC(C)C)C3=O)[C@@]1([H])CN(S(C)(=O)=O)C2 the screen gave Mtb heat-shock: -16.42%.
With CS(=O)(=O)NC1CCN(C(=O)NCC2CCCO2)CC1 (configuration not stated) the screen gave LdMetRS: 14.49%; Mtb heat-shock: 13.63%.
With O=C(COc1ccc(C(F)(F)F)cc1)N1CCOCC1c1ncon1 (configuration not stated) the screen gave LdMetRS: 7.669%; Mtb heat-shock: -2.695%.
With O=C1CCc2cc(-c3csc(CCN4CCCC4=O)n3)ccc2N1 the screen gave LdMetRS: 15.79%; Mtb heat-shock: 12.1%.
With COc1c(C)cnc(CN(C)C2CCN(C3CCOCC3)CC2)c1C the screen gave LdMetRS: 17.18%; Mtb heat-shock: 4.135%.
With CCN(C)C[C@@H]1CN(Cc2cccc(Cl)c2)C[C@@H]1CO the screen gave LdMetRS: 10.05%; Mtb heat-shock: -31.11%.
With Cc1nc(CN2CCCC(NCc3csc(C(C)(C)C)n3)C2)no1 (configuration not stated) the screen gave LdMetRS: 23.08%; Mtb heat-shock: -16.29%.
With CC(C)OCc1noc(C2CCCOC2)n1 (configuration not stated) the screen gave LdMetRS: 5.672%; Mtb heat-shock: -24.48%.
With O=C(N[C@@H]1CN(Cc2ccc3cc[nH]c3c2)C[C@H]1O)c1cnccn1 the screen gave LdMetRS: 12%; Mtb heat-shock: -9.898%.
With CN(Cc1cn2c(n1)CN(Cc1ccc(F)cc1)CC2)Cc1ccco1 the screen gave LdMetRS: 19.78%.
With COc1ccc(CNCc2ccnc(N3CCOCC3)c2)cc1OC the screen gave LdMetRS: 12.27%; Mtb heat-shock: 10.57%.
With CC(=O)N1CCc2ncn(C)c2C1C(=O)N1CCCC1.O=C(O)C(F)(F)F (configuration not stated) the screen gave Mtb heat-shock: -7.808%.
With COc1c(-c2ccc(O)cc2)oc2cc(O)cc(O)c2c1=O the screen gave LdMetRS: 9.89%; Mtb heat-shock: -5.386%.
With CCn1cncc1CN1CCc2nc3sccc3c(=O)n2CC1 the screen gave LdMetRS: 17.92%; Mtb heat-shock: -14.82%.
With CCNC(=O)N1CC[C@H]2CC(=O)N(C3CCCCC3)CC[C@H]2C1 the screen gave LdMetRS: 13.74%.
With Cc1ccc(CN(C(=O)c2cccc(NC(N)=O)c2)C2CC2)o1 the screen gave LdMetRS: 13.23%; Mtb heat-shock: -3.245%.
With O=C(NCCCn1cncn1)NCC(c1ccco1)N1CCCCC1 (configuration not stated) the screen gave LdMetRS: 4.861%; Mtb heat-shock: -2.31%.
With CCOc1ncccc1C(=O)N1CCC(Nc2ccc(C)nn2)CC1 the screen gave LdMetRS: 15.66%; Mtb heat-shock: -11.9%.
With Cc1nc(Nc2nnc(C)s2)cc(C2CCCN2)n1.Cl (configuration not stated) the screen gave Mtb heat-shock: -7.337%.
With O=C(O)C(F)(F)F.[H][C@@]12CN(C(=O)C3CC3)C[C@]1([H])OCCN2CC(=O)NC the screen gave Mtb heat-shock: 6.229%.
With [H][C@@]12C[C@H](C(=O)N3CCCCO3)CN(C(=O)c3ccoc3C)[C@]1([H])CCO2 the screen gave Mtb heat-shock: -2.05%.
With OCc1cc2ccccc2nc1N1CCCCC1 the screen gave LdMetRS: -3.876%; Mtb heat-shock: 14.85%.
With Cc1nc(C2CCN(S(=O)(=O)c3ccc4c(c3)CCC4)CC2)n[nH]1 the screen gave LdMetRS: 10.03%; Mtb heat-shock: -23.34%.
With CC(C)(C)c1noc(-c2ccnc(-n3cnc(C(=O)O)c3)c2)n1 the screen gave LdMetRS: 5.898%; Mtb heat-shock: -11.14%.
With O=C(c1cccc(C2CCNC2)c1)N1CCC(c2ncc[nH]2)CC1 (configuration not stated) the screen gave LdMetRS: 19.82%; Mtb heat-shock: 18.96%.
With O=C1NCC2=C1C(c1ccccc1)Nc1ccccc1N2 (configuration not stated) the screen gave LdMetRS: 4.852%; Mtb heat-shock: -0.9485%.
With c1ccc(CCN2CCN(C3CCOC4(CCOCC4)C3)CC2)nc1 (configuration not stated) the screen gave LdMetRS: 20.43%; Mtb heat-shock: -34.89%.
With O=C(c1cccnc1)N1C[C@@H]2CN(CCN3CCCC3)C(=O)[C@@H]2C1 the screen gave LdMetRS: 16.81%.
With Cc1ccc(-n2ncc(C(=O)NCC3CCS(=O)(=O)C3)c2C)cc1 (configuration not stated) the screen gave LdMetRS: 15.06%; Mtb heat-shock: 11.01%.
With COC(=O)c1cccn1C1CCN(Cc2cccc(C(N)=O)c2)CC1 the screen gave LdMetRS: 21.31%; Mtb heat-shock: -3.296%.
With Cc1ccc(C(C)NCc2c(C(C)C)nn(C)c2N2CCOCC2)o1 (configuration not stated) the screen gave LdMetRS: 21.71%; Mtb heat-shock: -9.158%.
With O=C(NCC(F)(F)F)C1CSCN1S(=O)(=O)c1ccc(F)cc1Cl (configuration not stated) the screen gave LdMetRS: 26.07%; Mtb heat-shock: -3.856%.
With CCCn1nnnc1COc1cc(OC)ccc1C(N)=O the screen gave LdMetRS: 10.42%; Mtb heat-shock: -0.7171%.

Some entries from above, unchanged:

* COc1ccc(CNCc2ccnc(N3CCOCC3)c2)cc1OC : LdMetRS: 12.27%; Mtb heat-shock: 10.57%
* CS(=O)(=O)NC1CCN(C(=O)NCC2CCCO2)CC1 (configuration not stated) : LdMetRS: 14.49%; Mtb heat-shock: 13.63%
* O=C(O)C(F)(F)F.[H][C@@]12CN(C(=O)C3CC3)C[C@]1([H])OCCN2CC(=O)NC : Mtb heat-shock: 6.229%
* OCc1cc2ccccc2nc1N1CCCCC1 : LdMetRS: -3.876%; Mtb heat-shock: 14.85%

The values are deposited in ChEMBL (CHEMBL3988442, “University of Dundee, Small-Polar-MMV Screening Library” (2021)).